Some entries share one result that the patent states for a list of compounds. d = 2'-deoxy (DNA); r = 2'-OH (RNA)
Experiments:
VEGFR2 mRNA = assay: Preliminary screening of VEGFR2 siRNAs, VEGFR2 mRNA by real-time PCR after lipo2000 transfection; type: cell-based, human; conditions: siRNA 100 nM, 24 h after transfection, MDA-MB-231 and U87-MG cells
TGF-β1 mRNA = assay: Preliminary screening of TGF-β1 siRNAs, TGF-β1 mRNA by real-time PCR after lipo2000 transfection; type: cell-based, human; conditions: siRNA 100 nM, 24 h after transfection, DLD-1, RKO, U87-MG and PANC-1 cells

Substance | knockdown effect (VEGFR2 mRNA, percentage of blank control) (VEGFR2 mRNA) | knockdown effect (TGF-β1 mRNA, percentage of blank control) (TGF-β1 mRNA)
VEGFR2-21-hm17#: siRNA targeting VEGFR2 mRNA; sense SEQ ID 76, antisense SEQ ID 119 (sense GGACUGGCUUUGGCCCAAUTT; antisense AUUGGGCCAAAGCCAGUCCTT; sugars from the 5' end r19 d2, backbone not given here) | ≥ 75% | 
VEGFR2-21-h1#: siRNA targeting VEGFR2 mRNA; sense SEQ ID 60, antisense SEQ ID 103 (sense GCCUAGUGUUUCUCUUGAUTT; antisense AUCAAGAGAAACACUAGGCTT; sugars from the 5' end r19 d2, backbone not given here) | ≥ 75% | 
TF1-21-hm3#: siRNA targeting TGF-β1 mRNA; sense SEQ ID 23, antisense SEQ ID 33 (sense AACUAUUGCUUCAGCUCCATT; antisense UGGAGCUGAAGCAAUAGUUTT; sugars from the 5' end r19 d2, backbone not given here) |  | ≥ 75%
VEGFR2-21-hm18#: siRNA targeting VEGFR2 mRNA; sense SEQ ID 77, antisense SEQ ID 120 (sense GGAAAAAACAAAACUGUAATT; antisense UUACAGUUUUGUUUUUUCCTT; sugars from the 5' end r19 d2, backbone not given here) | ≥ 75% | 
VEGFR2-21-h5#: siRNA targeting VEGFR2 mRNA; sense SEQ ID 64, antisense SEQ ID 107 (sense GCAUCAGCAUAAGAAACUUTT; antisense AAGUUUCUUAUGCUGAUGCTT; sugars from the 5' end r19 d2, backbone not given here) | ≥ 75% | 
VEGFR2-21-h2#: siRNA targeting VEGFR2 mRNA; sense SEQ ID 61, antisense SEQ ID 104 (sense GGUCCAUUUCAAAUCUCAATT; antisense UUGAGAUUUGAAAUGGACCTT; sugars from the 5' end r19 d2, backbone not given here) | ≥ 75% | 
VEGFR2-21-h7#: siRNA targeting VEGFR2 mRNA; sense SEQ ID 66, antisense SEQ ID 109 (sense GCUGACAUGUACGGUCUAUTT; antisense AUAGACCGUACAUGUCAGCTT; sugars from the 5' end r19 d2, backbone not given here) | ≥ 75% | 
TF1-21-hm6#: siRNA targeting TGF-β1 mRNA; sense SEQ ID 26, antisense SEQ ID 36 (sense CGGCAGCUGUACAUUGACUTT; antisense AGUCAAUGUACAGCUGCCGTT; sugars from the 5' end r19 d2, backbone not given here) |  | ≥ 75%
VEGFR2-25-h4#: siRNA targeting VEGFR2 mRNA; sense SEQ ID 44, antisense SEQ ID 87 (sense CCCUUGAGUCCAAUCACACAAUUAA; antisense UUAAUUGUGUGAUUGGACUCAAGGG; RNA, backbone not given here) | ≥ 75% | 
VEGFR2-25-h3#: siRNA targeting VEGFR2 mRNA; sense SEQ ID 43, antisense SEQ ID 86 (sense GACCAACAUGGAGUCGUGUACAUUA; antisense UAAUGUACACGACUCCAUGUUGGUC; RNA, backbone not given here) | ≥ 75% | 
